# Laboratory results from patent publication US10172832B2, “Amide derivatives of N-urea substituted amino acids as formyl peptide receptor like-1 (FPRL-1) receptor modulators” (Allergan, Inc., priority 2011, dated 2019).
# By UniProt entry, the sequences of proteins in these tests, tags left out.
# UniProt P25090, whole entry: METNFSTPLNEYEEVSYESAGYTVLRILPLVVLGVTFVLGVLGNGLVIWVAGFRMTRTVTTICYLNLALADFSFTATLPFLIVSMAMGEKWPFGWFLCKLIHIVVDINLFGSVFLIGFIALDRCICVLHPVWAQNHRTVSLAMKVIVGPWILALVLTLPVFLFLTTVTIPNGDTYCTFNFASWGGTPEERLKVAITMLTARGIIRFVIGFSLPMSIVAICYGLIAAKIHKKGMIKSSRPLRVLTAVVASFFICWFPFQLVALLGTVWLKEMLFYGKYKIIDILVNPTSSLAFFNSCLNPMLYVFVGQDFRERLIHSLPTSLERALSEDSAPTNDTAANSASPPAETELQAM
# Target: FPRL-1 (Homo sapiens, UniProt P25090)
# Assay: compound-induced calcium activity on FLIPR Tetra in CHO-Gα16 cells stably expressing FPRL1
# Assay type: cell-based
# Conditions: relative efficacy
compound,measurement,value
CC(C)C[C@H](NC(=O)Nc1ccc(Br)cc1F)C(=O)NCC(N)=O,FPRL-1 Ga16-CHO (Rel. eff.),(0.95)

# The match of structure and compound is tentative.
